Values of other authors in patent publication US6828346B2, “Methods for administration of paclitaxel” (SuperGen, Inc., priority 1999, dated 2004).

CC(=O)O[C@H]1C(=O)[C@@]2(C)[C@H]([C@H](OC(=O)c3ccccc3)[C@]3(O)C[C@H](OC(=O)[C@H](O)[C@@H](NC(=O)c4ccccc4)c4ccccc4)C(C)=C1C3(C)C)[C@]1(OC(C)=O)CO[C@@H]1C[C@@H]2O [paclitaxel]
solubility in water: less than 0.01 mg/mL
